# Over roughly 1,900 compounds, “excess over highest single agent (ExcessHSA) synergy score, 6x6 matrix” has its median near -83; the lowest 2% begin near -370. This is one part of the list.
# System: NCI-H446
# Assay: excess over highest single agent (ExcessHSA) synergy score, 6x6 matrix; higher = less synergy (more negative = stronger synergy)
# Details: 72 h; CellTiter-Glo viability
row,SMILES,excess over highest single agent
1,CC(C)(O)[C@H]1CC[C@@](C)([C@H]2[C@@H](O)C[C@@]3(C)[C@@H]4C[C@H](O[C@@H]5O[C@H](CO)[C@@H](O)[C@H](O)[C@H]5O)[C@H]5C(C)(C)[C@@H](O[C@@H]6OC[C@@H](O)[C@H](O)[C@H]6O)CC[C@@]56C[C@@]46CC[C@]23C)O1 + Cc1sc2c(c1C)C(c1ccc(Cl)cc1)=N[C@@H](CC(=O)OC(C)(C)C)c1nnc(C)n1-2 [NCGC00250412-19],-30.6
2,NNCCc1ccccc1 + Cc1sc2c(c1C)C(c1ccc(Cl)cc1)=N[C@@H](CC(=O)OC(C)(C)C)c1nnc(C)n1-2 [NCGC00250412-19],-11.1
3,COC(=O)Nc1nc2cc(C(=O)c3cccs3)ccc2[nH]1 + Cc1sc2c(c1C)C(c1ccc(Cl)cc1)=N[C@@H](CC(=O)OC(C)(C)C)c1nnc(C)n1-2 [NCGC00250412-19],-109
4,CC(C)(C)c1cnc(CSc2cnc(NC(=O)C3CCNCC3)s2)o1 + Cc1sc2c(c1C)C(c1ccc(Cl)cc1)=N[C@@H](CC(=O)OC(C)(C)C)c1nnc(C)n1-2 [NCGC00250412-19],-215
5,Cc1cc(=O)c2c(O)c3c(O)cc(=O)c4c3c3c(cc(O)c1c23)C(C)(C)C=4O + Cc1sc2c(c1C)C(c1ccc(Cl)cc1)=N[C@@H](CC(=O)OC(C)(C)C)c1nnc(C)n1-2 [NCGC00250412-19],-128
6,CC(C)c1c(C(=O)Nc2ccccc2)c(-c2ccccc2)c(-c2ccc(F)cc2)n1CC[C@@H](O)C[C@@H](O)CC(=O)O + Cc1sc2c(c1C)C(c1ccc(Cl)cc1)=N[C@@H](CC(=O)OC(C)(C)C)c1nnc(C)n1-2 [NCGC00250412-19],-73.4
7,OC(Cn1cncn1)(Cn1cncn1)c1ccc(F)cc1F + Cc1sc2c(c1C)C(c1ccc(Cl)cc1)=N[C@@H](CC(=O)OC(C)(C)C)c1nnc(C)n1-2 [NCGC00250412-19],-24.3
8,OC[C@H](Cc1ccccc1)Nc1nc(Oc2ccc3c(c2)CCC3)nc2c1ncn2Cc1ccc(-c2ccccc2)cc1 + Cc1sc2c(c1C)C(c1ccc(Cl)cc1)=N[C@@H](CC(=O)OC(C)(C)C)c1nnc(C)n1-2 [NCGC00250412-19],-24.1
9,NCCc1c[nH]cn1 + Cc1sc2c(c1C)C(c1ccc(Cl)cc1)=N[C@@H](CC(=O)OC(C)(C)C)c1nnc(C)n1-2 [NCGC00250412-19],406
10,C[C@@H](NCCCc1cccc(C(F)(F)F)c1)c1cccc2ccccc12 + Cc1sc2c(c1C)C(c1ccc(Cl)cc1)=N[C@@H](CC(=O)OC(C)(C)C)c1nnc(C)n1-2 [NCGC00250412-19],-78
11,CN1CCc2c(n(Cc3ccc(C(=O)NO)cc3)c3ccccc23)C1 + Cc1sc2c(c1C)C(c1ccc(Cl)cc1)=N[C@@H](CC(=O)OC(C)(C)C)c1nnc(C)n1-2 [NCGC00250412-19],215
12,Cc1cn[nH]c1 + Cc1sc2c(c1C)C(c1ccc(Cl)cc1)=N[C@@H](CC(=O)OC(C)(C)C)c1nnc(C)n1-2 [NCGC00250412-19],-144
13,COc1c/c(=C2/C=c3ccccc3=N2)[nH]/c1=C/c1[nH]c(C)cc1C + Cc1sc2c(c1C)C(c1ccc(Cl)cc1)=N[C@@H](CC(=O)OC(C)(C)C)c1nnc(C)n1-2 [NCGC00250412-19],-333
14,COc1ccc(-c2ccc3c(N4CCOC[C@@H]4C)nc(N4CCOC[C@@H]4C)nc3n2)cc1CO + Cc1sc2c(c1C)C(c1ccc(Cl)cc1)=N[C@@H](CC(=O)OC(C)(C)C)c1nnc(C)n1-2 [NCGC00250412-19],-247
15,COc1ccc2c(c1)CCC1C2CCC2(C)C(NCCCCCCN3C(=O)C=CC3=O)CCC12 (stereo not drawn) + Cc1sc2c(c1C)C(c1ccc(Cl)cc1)=N[C@@H](CC(=O)OC(C)(C)C)c1nnc(C)n1-2 [NCGC00250412-19],-206
16,CC1(C)C(N(O)C(=O)Nc2ccc(Cl)cc2)N(c2ccc(Cl)cc2)C(=O)N1CC(=O)NN=CC=Cc1ccc([N+](=O)[O-])o1 (stereo not drawn) + Cc1sc2c(c1C)C(c1ccc(Cl)cc1)=N[C@@H](CC(=O)OC(C)(C)C)c1nnc(C)n1-2 [NCGC00250412-19],122
17,COc1nccc(-c2c(-c3ccc(F)cc3)ncn2C2CCC(O)CC2)n1 (stereo not drawn) + Cc1sc2c(c1C)C(c1ccc(Cl)cc1)=N[C@@H](CC(=O)OC(C)(C)C)c1nnc(C)n1-2 [NCGC00250412-19],-34.6
18,CC(=O)Oc1ccccc1C(=O)Nc1ncc([N+](=O)[O-])s1 + Cc1sc2c(c1C)C(c1ccc(Cl)cc1)=N[C@@H](CC(=O)OC(C)(C)C)c1nnc(C)n1-2 [NCGC00250412-19],-27.2
19,NC(=O)c1ccc(N(C(N)=O)c2c(F)cccc2F)nc1-c1ccc(F)cc1F + Cc1sc2c(c1C)C(c1ccc(Cl)cc1)=N[C@@H](CC(=O)OC(C)(C)C)c1nnc(C)n1-2 [NCGC00250412-19],-51.7

# Two entries drawn at random from those above:
row,SMILES,excess over highest single agent
10,C[C@@H](NCCCc1cccc(C(F)(F)F)c1)c1cccc2ccccc12 + Cc1sc2c(c1C)C(c1ccc(Cl)cc1)=N[C@@H](CC(=O)OC(C)(C)C)c1nnc(C)n1-2 [NCGC00250412-19],-78
11,CN1CCc2c(n(Cc3ccc(C(=O)NO)cc3)c3ccccc23)C1 + Cc1sc2c(c1C)C(c1ccc(Cl)cc1)=N[C@@H](CC(=O)OC(C)(C)C)c1nnc(C)n1-2 [NCGC00250412-19],215

# Later entries

row,SMILES,excess over highest single agent
1,N#Cc1ccc(C(c2ccc(C#N)cc2)n2cncn2)cc1 + Cc1sc2c(c1C)C(c1ccc(Cl)cc1)=N[C@@H](CC(=O)OC(C)(C)C)c1nnc(C)n1-2 [NCGC00250412-19],-259
2,C[C@@]1(C(=O)Nc2ccc(F)nc2)CCCN1c1nc(Nc2cc(C3CC3)n[nH]2)c2cccn2n1 + Cc1sc2c(c1C)C(c1ccc(Cl)cc1)=N[C@@H](CC(=O)OC(C)(C)C)c1nnc(C)n1-2 [NCGC00250412-19],-249
3,Clc1ccc(CCC(Cn2ccnc2)Sc2c(Cl)cccc2Cl)cc1 (stereo not drawn) + Cc1sc2c(c1C)C(c1ccc(Cl)cc1)=N[C@@H](CC(=O)OC(C)(C)C)c1nnc(C)n1-2 [NCGC00250412-19],-18.2
4,N=C(NCCCCCCNC(=N)NC(=N)Nc1ccc(Cl)cc1)NC(=N)Nc1ccc(Cl)cc1 + Cc1sc2c(c1C)C(c1ccc(Cl)cc1)=N[C@@H](CC(=O)OC(C)(C)C)c1nnc(C)n1-2 [NCGC00250412-19],-235
5,COc1c2occc2cc2ccc(=O)oc12 + Cc1sc2c(c1C)C(c1ccc(Cl)cc1)=N[C@@H](CC(=O)OC(C)(C)C)c1nnc(C)n1-2 [NCGC00250412-19],-204
6,COc1ccc2c(OCc3nnc4ccc(-c5ccccc5)nn34)ccnc2c1 + Cc1sc2c(c1C)C(c1ccc(Cl)cc1)=N[C@@H](CC(=O)OC(C)(C)C)c1nnc(C)n1-2 [NCGC00250412-19],11.1
7,CCOC(=O)[C@@H](N)Cc1ccc(-c2cc(O[C@H](c3ccc(Cl)cc3-n3ccc(C)n3)C(F)(F)F)nc(N)n2)cc1 + Cc1sc2c(c1C)C(c1ccc(Cl)cc1)=N[C@@H](CC(=O)OC(C)(C)C)c1nnc(C)n1-2 [NCGC00250412-19],-149
8,O=S(=O)(F)Cc1ccccc1 + Cc1sc2c(c1C)C(c1ccc(Cl)cc1)=N[C@@H](CC(=O)OC(C)(C)C)c1nnc(C)n1-2 [NCGC00250412-19],-94.8
9,CC(C)(O)/C=C/C(=O)[C@](C)(O)[C@H]1[C@H](O)C[C@@]2(C)[C@@H]3CC=C4[C@@H](C=C(O)C(=O)C4(C)C)[C@]3(C)C(=O)C[C@]12C + Cc1sc2c(c1C)C(c1ccc(Cl)cc1)=N[C@@H](CC(=O)OC(C)(C)C)c1nnc(C)n1-2 [NCGC00250412-19],-136
10,Cc1nnc(C(=O)NC(C)(C)c2nc(C(=O)NCc3ccc(F)cc3)c(O)c(=O)n2C)o1 + Cc1sc2c(c1C)C(c1ccc(Cl)cc1)=N[C@@H](CC(=O)OC(C)(C)C)c1nnc(C)n1-2 [NCGC00250412-19],-100
11,CC(C)c1nn(-c2c(Cl)cccc2Cl)c2nc(Cc3ccc(OCCO)cc3)[nH]c(=O)c12 + Cc1sc2c(c1C)C(c1ccc(Cl)cc1)=N[C@@H](CC(=O)OC(C)(C)C)c1nnc(C)n1-2 [NCGC00250412-19],-167
12,O=C(NC[C@H]1CN(c2ccc(N3CCOCC3=O)cc2)C(=O)O1)c1ccc(Cl)s1 + Cc1sc2c(c1C)C(c1ccc(Cl)cc1)=N[C@@H](CC(=O)OC(C)(C)C)c1nnc(C)n1-2 [NCGC00250412-19],-16.6
13,CC[C@H](/C=C/[C@@H](C)[C@H]1CC[C@H]2[C@@H]3CC=C4C[C@@H](O)CC[C@]4(C)[C@H]3CC[C@]12C)C(C)C + Cc1sc2c(c1C)C(c1ccc(Cl)cc1)=N[C@@H](CC(=O)OC(C)(C)C)c1nnc(C)n1-2 [NCGC00250412-19],-106
14,O=C(O)c1cn(-c2ccc(F)cc2)c2cc(N3CCNCC3)c(F)cc2c1=O + Cc1sc2c(c1C)C(c1ccc(Cl)cc1)=N[C@@H](CC(=O)OC(C)(C)C)c1nnc(C)n1-2 [NCGC00250412-19],-102
15,Oc1ccc(C2CCN(c3ccnc4ccccc34)CC2)cc1O + Cc1sc2c(c1C)C(c1ccc(Cl)cc1)=N[C@@H](CC(=O)OC(C)(C)C)c1nnc(C)n1-2 [NCGC00250412-19],-257
16,COC(=O)[C@H](c1ccccc1Cl)N1CCc2sccc2C1 + Cc1sc2c(c1C)C(c1ccc(Cl)cc1)=N[C@@H](CC(=O)OC(C)(C)C)c1nnc(C)n1-2 [NCGC00250412-19],-20.3
17,CC(C)(C)COc1ccc(-n2cc(C(=O)O)cn2)cc1C#N + Cc1sc2c(c1C)C(c1ccc(Cl)cc1)=N[C@@H](CC(=O)OC(C)(C)C)c1nnc(C)n1-2 [NCGC00250412-19],-14.1
18,COCCCC/C(=N\OCCN)c1ccc(C(F)(F)F)cc1 + Cc1sc2c(c1C)C(c1ccc(Cl)cc1)=N[C@@H](CC(=O)OC(C)(C)C)c1nnc(C)n1-2 [NCGC00250412-19],-161
19,NC(=O)N1CCC(CC(=O)N2CCC([C@H]3c4ncc(Br)cc4CCc4cc(Cl)cc(Br)c43)CC2)CC1 + Cc1sc2c(c1C)C(c1ccc(Cl)cc1)=N[C@@H](CC(=O)OC(C)(C)C)c1nnc(C)n1-2 [NCGC00250412-19],-328

# From the supplement of paper PMC10077471
